We go through one compound from the RepoRT retention time repository (doi:10.1021/acs.analchem.2c02893).

This series is described as follows: RP, Thermo Scientific Acclaim RSLC 120 C18, 100 × 2.1 mm, 2.2 µm, 30 °C, 0.2 mL/min, estimated dead time 1.1 min; A: 90% water + 10% methanol + 0.01% formic acid + 5 mM ammonium formate, pH 3.61; B: methanol + 0.01% formic acid + 5 mM ammonium formate, pH 3.61; gradient (min/%B) 0/1 1/1 2/39 13/99.9 15/99.9 15.1/1 20.1/1. As to conditions: stereoisomer not certain.

With `O=C(c1ccccc1)c1ccccc1` [Benzophenone-d10], the LC retention time is 9.51 min.
